Data: the supplement of paper PMC12819154, “High-throughput peptide-centric local stability assay extends protein–ligand identification to membrane proteins, tissues and bacteria” (Nature Structural & Molecular Biology, 2025)
Some of the results follow. Most values lie at the level of the controls, where differences are scatter.

Amino acid sequences for entries named in this document (tags omitted). A change or cut given only in a name is not applied to a line headed by its entry.
UniProt Q14517: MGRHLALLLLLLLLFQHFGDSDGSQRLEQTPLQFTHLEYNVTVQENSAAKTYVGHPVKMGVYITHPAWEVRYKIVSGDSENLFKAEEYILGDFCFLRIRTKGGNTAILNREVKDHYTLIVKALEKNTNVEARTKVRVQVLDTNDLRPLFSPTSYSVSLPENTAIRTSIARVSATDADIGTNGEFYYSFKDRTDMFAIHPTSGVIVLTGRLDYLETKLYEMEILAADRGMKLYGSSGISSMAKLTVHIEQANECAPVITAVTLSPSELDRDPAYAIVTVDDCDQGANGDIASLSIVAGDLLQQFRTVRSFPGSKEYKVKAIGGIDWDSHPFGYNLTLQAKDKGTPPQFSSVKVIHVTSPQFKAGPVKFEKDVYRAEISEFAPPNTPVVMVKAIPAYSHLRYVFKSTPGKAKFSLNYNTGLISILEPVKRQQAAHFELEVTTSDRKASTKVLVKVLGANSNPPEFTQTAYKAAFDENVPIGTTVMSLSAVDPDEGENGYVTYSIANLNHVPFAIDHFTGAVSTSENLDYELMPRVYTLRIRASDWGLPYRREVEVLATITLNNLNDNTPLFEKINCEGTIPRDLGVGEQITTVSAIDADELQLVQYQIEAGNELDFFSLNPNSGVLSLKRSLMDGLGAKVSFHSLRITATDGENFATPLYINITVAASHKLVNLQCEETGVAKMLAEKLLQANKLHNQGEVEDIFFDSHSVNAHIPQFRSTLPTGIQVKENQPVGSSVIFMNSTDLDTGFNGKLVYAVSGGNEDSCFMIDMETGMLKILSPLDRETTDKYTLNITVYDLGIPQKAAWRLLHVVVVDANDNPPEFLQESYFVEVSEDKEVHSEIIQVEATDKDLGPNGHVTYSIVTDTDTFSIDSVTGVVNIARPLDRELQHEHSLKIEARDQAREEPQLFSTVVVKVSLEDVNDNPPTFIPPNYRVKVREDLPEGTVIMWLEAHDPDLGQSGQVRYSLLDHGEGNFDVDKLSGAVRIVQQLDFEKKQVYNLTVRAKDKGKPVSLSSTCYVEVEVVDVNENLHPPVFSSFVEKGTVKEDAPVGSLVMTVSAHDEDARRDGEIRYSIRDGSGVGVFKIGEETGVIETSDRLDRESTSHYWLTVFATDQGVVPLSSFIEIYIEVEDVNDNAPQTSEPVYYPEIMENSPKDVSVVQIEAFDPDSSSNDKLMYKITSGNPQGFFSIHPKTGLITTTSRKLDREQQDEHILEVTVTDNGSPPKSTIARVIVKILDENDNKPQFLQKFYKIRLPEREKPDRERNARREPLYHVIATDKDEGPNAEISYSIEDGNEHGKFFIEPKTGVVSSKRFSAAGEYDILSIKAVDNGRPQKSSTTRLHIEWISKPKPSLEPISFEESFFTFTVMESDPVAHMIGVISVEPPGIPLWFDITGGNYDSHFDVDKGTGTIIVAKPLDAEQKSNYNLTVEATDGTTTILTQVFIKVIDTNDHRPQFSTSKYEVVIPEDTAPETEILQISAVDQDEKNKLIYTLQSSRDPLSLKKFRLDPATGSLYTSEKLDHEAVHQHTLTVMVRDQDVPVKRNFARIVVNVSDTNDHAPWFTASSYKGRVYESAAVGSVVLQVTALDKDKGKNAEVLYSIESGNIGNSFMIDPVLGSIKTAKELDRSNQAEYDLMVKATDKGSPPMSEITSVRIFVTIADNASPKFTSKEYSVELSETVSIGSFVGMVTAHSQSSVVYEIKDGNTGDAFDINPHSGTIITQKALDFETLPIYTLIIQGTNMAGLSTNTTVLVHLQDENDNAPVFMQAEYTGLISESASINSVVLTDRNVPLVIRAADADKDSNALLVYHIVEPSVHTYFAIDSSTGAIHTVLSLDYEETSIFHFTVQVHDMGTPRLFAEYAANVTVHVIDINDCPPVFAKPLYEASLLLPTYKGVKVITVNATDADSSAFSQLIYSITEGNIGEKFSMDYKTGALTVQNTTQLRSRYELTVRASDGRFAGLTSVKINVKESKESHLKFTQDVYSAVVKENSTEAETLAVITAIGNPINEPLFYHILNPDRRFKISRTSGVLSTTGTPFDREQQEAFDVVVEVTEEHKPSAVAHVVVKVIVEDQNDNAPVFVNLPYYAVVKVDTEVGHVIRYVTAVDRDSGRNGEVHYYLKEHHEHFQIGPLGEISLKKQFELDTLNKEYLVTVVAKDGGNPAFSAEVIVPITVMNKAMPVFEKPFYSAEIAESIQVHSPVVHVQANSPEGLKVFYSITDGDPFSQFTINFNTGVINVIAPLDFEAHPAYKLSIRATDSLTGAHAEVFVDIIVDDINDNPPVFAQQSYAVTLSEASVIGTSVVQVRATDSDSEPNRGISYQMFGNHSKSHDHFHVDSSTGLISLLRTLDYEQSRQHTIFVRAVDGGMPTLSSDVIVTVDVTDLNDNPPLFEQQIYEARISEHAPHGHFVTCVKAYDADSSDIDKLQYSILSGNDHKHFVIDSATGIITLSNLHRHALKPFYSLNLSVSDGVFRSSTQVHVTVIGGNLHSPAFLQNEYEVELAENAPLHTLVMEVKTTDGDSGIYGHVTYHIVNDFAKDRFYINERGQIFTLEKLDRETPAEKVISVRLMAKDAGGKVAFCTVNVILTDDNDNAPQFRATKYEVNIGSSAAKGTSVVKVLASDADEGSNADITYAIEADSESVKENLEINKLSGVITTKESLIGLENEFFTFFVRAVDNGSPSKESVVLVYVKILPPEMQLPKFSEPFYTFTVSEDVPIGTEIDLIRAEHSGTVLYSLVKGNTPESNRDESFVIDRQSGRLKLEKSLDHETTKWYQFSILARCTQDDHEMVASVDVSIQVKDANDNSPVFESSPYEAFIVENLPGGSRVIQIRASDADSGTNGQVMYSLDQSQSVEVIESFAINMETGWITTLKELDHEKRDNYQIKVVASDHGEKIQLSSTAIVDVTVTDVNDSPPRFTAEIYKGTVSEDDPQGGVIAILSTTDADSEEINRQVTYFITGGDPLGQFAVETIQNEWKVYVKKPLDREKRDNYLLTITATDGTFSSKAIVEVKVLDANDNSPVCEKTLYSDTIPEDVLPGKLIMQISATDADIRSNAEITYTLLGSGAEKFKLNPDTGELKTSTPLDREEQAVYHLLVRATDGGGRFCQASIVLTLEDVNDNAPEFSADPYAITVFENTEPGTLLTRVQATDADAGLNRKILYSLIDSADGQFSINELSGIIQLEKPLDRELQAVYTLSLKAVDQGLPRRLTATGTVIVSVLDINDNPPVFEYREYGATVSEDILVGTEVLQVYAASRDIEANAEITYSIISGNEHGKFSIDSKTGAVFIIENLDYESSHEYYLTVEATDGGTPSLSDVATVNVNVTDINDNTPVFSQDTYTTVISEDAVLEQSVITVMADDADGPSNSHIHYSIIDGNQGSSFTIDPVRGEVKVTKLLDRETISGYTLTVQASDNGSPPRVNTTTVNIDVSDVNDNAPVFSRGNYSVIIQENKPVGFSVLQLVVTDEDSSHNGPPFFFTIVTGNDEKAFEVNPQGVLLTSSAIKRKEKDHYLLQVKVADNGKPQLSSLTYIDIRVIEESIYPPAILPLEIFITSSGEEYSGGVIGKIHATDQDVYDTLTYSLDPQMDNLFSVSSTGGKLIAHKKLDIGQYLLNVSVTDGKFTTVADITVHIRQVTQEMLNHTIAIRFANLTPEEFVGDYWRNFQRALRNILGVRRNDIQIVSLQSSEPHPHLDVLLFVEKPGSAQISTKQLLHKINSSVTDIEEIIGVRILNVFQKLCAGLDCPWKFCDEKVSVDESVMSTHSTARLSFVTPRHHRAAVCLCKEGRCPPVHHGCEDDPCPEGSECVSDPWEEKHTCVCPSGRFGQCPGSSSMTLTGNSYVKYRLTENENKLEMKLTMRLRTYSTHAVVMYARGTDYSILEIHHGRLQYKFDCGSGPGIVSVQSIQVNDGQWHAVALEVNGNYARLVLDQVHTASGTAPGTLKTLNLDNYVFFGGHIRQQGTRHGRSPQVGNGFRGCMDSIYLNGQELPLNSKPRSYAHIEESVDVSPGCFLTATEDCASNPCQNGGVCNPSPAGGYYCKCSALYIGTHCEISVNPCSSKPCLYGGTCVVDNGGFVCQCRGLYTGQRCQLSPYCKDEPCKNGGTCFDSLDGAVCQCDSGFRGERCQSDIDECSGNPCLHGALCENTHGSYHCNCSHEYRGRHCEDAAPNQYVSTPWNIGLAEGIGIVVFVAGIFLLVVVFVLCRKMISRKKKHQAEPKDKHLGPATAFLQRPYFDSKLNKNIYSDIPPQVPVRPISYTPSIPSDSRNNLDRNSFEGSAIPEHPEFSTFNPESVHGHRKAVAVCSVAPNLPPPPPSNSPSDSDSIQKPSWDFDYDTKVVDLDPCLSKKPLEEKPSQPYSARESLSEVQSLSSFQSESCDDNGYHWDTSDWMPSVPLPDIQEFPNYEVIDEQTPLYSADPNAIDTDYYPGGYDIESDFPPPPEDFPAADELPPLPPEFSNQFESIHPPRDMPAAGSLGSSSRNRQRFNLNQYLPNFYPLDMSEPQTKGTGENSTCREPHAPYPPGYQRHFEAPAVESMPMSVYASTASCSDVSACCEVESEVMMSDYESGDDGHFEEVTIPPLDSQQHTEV
UniProt Q14558: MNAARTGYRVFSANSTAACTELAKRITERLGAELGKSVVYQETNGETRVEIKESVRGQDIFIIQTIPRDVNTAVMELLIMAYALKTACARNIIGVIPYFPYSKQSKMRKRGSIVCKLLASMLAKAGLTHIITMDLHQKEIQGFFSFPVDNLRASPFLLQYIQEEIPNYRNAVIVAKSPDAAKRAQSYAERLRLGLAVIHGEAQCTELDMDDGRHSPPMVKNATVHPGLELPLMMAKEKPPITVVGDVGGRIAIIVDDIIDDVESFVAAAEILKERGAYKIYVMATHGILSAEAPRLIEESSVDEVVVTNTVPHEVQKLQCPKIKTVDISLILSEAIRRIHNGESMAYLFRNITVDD
UniProt Q13951, whole entry: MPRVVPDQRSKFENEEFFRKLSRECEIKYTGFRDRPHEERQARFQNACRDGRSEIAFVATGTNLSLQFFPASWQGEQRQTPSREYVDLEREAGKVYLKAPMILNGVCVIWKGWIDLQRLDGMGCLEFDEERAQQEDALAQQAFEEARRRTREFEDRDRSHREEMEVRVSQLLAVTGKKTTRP
UniProt Q13574: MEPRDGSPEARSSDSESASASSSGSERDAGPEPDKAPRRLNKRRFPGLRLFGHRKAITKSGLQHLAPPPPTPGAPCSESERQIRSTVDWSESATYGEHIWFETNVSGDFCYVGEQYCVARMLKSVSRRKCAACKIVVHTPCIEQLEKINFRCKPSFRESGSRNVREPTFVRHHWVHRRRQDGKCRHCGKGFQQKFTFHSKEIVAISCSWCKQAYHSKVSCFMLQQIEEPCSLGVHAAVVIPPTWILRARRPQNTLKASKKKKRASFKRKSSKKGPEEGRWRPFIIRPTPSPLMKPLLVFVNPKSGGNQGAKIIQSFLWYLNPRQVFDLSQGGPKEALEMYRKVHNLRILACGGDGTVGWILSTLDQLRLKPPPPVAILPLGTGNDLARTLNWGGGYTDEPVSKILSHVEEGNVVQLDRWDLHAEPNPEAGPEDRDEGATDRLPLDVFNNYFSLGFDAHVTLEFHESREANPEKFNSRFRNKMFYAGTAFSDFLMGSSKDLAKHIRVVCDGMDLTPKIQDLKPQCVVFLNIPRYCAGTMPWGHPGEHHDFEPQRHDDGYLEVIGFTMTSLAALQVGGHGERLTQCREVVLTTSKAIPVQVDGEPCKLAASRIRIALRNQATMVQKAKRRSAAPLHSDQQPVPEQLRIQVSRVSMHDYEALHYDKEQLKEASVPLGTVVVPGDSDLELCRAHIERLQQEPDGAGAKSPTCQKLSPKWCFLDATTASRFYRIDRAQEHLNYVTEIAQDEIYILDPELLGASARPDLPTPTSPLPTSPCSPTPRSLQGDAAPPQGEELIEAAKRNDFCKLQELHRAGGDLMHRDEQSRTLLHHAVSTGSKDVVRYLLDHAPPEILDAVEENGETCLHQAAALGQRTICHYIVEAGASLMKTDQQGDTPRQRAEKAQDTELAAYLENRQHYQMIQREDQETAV
UniProt Q14449, whole entry: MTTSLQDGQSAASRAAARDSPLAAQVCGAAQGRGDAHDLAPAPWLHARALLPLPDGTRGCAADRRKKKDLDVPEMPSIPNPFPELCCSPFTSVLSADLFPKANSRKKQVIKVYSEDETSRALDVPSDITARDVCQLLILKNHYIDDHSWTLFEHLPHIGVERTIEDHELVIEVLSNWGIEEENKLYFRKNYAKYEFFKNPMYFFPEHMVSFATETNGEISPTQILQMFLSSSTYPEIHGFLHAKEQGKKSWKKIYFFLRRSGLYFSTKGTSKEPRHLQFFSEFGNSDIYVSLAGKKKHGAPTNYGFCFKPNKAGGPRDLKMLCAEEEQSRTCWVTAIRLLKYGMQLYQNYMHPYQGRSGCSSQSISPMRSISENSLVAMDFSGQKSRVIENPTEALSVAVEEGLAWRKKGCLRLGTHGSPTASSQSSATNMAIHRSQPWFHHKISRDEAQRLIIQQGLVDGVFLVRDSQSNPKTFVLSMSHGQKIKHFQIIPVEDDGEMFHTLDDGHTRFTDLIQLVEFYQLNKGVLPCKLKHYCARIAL

Each target was assayed with Cc1nc(Nc2ncc(C(=O)Nc3c(C)cccc3Cl)s2)cc(N2CCN(CCO)CC2)n1 [dasatinib] (assay: log2 fold change of tryptic peptide abundance, ligand vs vehicle (limited proteolysis) (log2 ratio); higher = more trypsin-susceptible (destabilized)). Settings: ligand concentration: 5 uM; sample: K562 cleared lysate.
With “PDCD11 (peptide sequence: YLDYEKQHGTEK, peptide start residue: 1838) (UniProt Q14690)” the log2 fold change was 0.525.
“FAT1 (peptide sequence: PLEEKPSQPYSAR, peptide start residue: 4347) (UniProt Q14517)” was tested, and the log2 fold change was -0.0383.
“UniProt Q14141 (peptide sequence: KSLDDEVNAFK, peptide start residue: 387)” showed a log2 fold change of -0.471.
For “GIT2 (peptide sequence: QGGHHELAER, peptide start residue: 209) (UniProt Q14161)”, the log2 fold change was -0.602.
For “MTX1 (peptide sequence: NYVEVTRK, peptide start residue: 267) (UniProt Q13505)”, the log2 fold change was 0.492.
With “DRAP1 (peptide sequence: KIMQTDEEIGK, peptide start residue: 19) (UniProt Q14919)” the log2 fold change was -0.186.
“TARBP1 (peptide sequence: KIIPWNSR, peptide start residue: 1433) (UniProt Q13395)” showed a log2 fold change of -0.394.
Work on “DSG2 (peptide sequence: VATPLPDPMASR, peptide start residue: 920) (UniProt Q14126)” yielded a log2 fold change of 0.666.
“PRPSAP1 (peptide sequence: EKPPITVVGDVGGR, peptide start residue: 250) (UniProt Q14558)” showed a log2 fold change of -0.279.
“ZBTB17 (peptide sequence: AFTQASSLIAHVR, peptide start residue: 538) (UniProt Q13105)” gave a log2 fold change of 0.369.
In the case of “VGLL4 (peptide sequence: QQNRPSVITCASAGAR, peptide start residue: 158) (UniProt Q14135)”, the log2 fold change is reported as 0.236.
“TARDBP (peptide sequence: QSQDEPLR, peptide start residue: 182) (UniProt Q13148)” was tested, and the log2 fold change was -0.138.
“ENDOG (peptide sequence: AGSLKAITAGSK, peptide start residue: 286) (UniProt Q14249)” gave a log2 fold change of 0.534.
In the case of “MPP2 (peptide sequence: TLVLIGAQGVGRR, peptide start residue: 340) (UniProt Q14168)”, the log2 fold change is reported as -0.291.
For “TRIP12 (peptide sequence: SPTTTQSPK, peptide start residue: 1030) (UniProt Q14669)”, the log2 fold change was 0.378.
In the case of “CUL4A (peptide sequence: DMELSKDIMVHFK, peptide start residue: 497) (UniProt Q13619)”, the log2 fold change is reported as -0.424.
For “CBFB (peptide sequence: EAGKVYLKAPMILNGVCVIWK, peptide start residue: 91) (UniProt Q13951)”, the log2 fold change was 0.453.
“PAK1 (peptide sequence: SILPGDKTNK, peptide start residue: 57) (UniProt Q13153)” gave a log2 fold change of 0.317.
With “DGKZ (peptide sequence: TICHYIVEAGASLMK, peptide start residue: 872) (UniProt Q13574)” the log2 fold change was 0.0902.
Work on “PICALM (peptide sequence: SLITTHHLMVYGNER, peptide start residue: 78) (UniProt Q13492)” yielded a log2 fold change of -0.191.
Target “UniProt Q13131 (peptide sequence: SDSDAEAQGK, peptide start residue: 506)” has a log2 fold change of 0.256.
Target “UniProt Q14449 (peptide sequence: GVLPCKLK, peptide start residue: 579)” has a log2 fold change of 0.142.
“URB2 (peptide sequence: AGPEGIEPR, peptide start residue: 859) (UniProt Q14146)” showed a log2 fold change of 0.165.
In the case of “EIF2B1 (peptide sequence: VAQTGQDLK, peptide start residue: 259) (UniProt Q14232)”, the log2 fold change is reported as 0.059.
“NCOA6 (peptide sequence: IGQILLTK, peptide start residue: 1823) (UniProt Q14686)” gave a log2 fold change of 0.129.
“RRP1B (peptide sequence: SSTATHPPGPAVQLNKTPSSSK, peptide start residue: 661) (UniProt Q14684)” gave a log2 fold change of 0.524.
